Source: PubChem BioAssay AID1259415 (National Center for Advancing Translational Sciences (NCATS), 2018)
About 18,000 (4.4%) of roughly 410,000 compounds were called active. Inconclusive results, whose numbers are uncertain, are shown with a selection of clear calls. Cut-off read from the data, not from the text of the source: active = activity change below about -60%; inconclusive = no clear call, values can overlap the other calls; inactive = above about -39%.

assay: qHTS Assay for inhibitors of the human cytomegalovirus (HCMV); details: HFF cells, HCMV-luciferase reporter, 72 h; at 57.5 µM; active compounds read low
Summary of the method: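 Steps: HFFs plated, 16 h 37C; compounds added; HCMV-luciferase added to MOI 1 PFU/cell; 72 h 37C; OneGlo reagent, 5 min room temperature; luminescence read, normalized to controls.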
% is set by controls: 0 for no effect and ±100 for the full control effect.

Compound | activity change, negative = inhibition
CCc1ccc(CNC(=O)c2cc3c(C)nc4ccccc4c3o2)cc1 | active: -64.1%
FC(F)(F)c1ccccc1-n1c(CN2CCCCC2)n[nH]c1=S | inactive: -20.4%
Cc1ccc(SCc2cc(=O)n(C)[nH]2)cc1 | inactive: 1.77%
O=C(/C=C/c1ccccc1O)c1ccc(Cl)cc1 | inactive: 32%
Brc1ccc2ncnc(NCc3cccnc3)c2c1 | active: -65.9%
CCCCN(CCCC)C(=O)c1cc2ccccc2c(=O)o1 | active: -68.1%
CCOC(=O)Cc1csc(NC(=O)/C=C/c2ccc(Br)o2)n1 | inconclusive: -51.7%
Cc1cccc(-n2c(O)c(C)c(=O)[nH]c2=S)c1 | inconclusive: -42.7%
Cc1c(NC(=O)CN2C(=O)c3ccc([N+](=O)[O-])cc3C2=O)c(=O)n(-c2ccccc2)n1C | inactive: -24.9%
Cc1c(NC(=O)CSc2ccccc2Cl)c(=O)n(-c2ccccc2)n1C | inconclusive: -46.9%
Cc1ccc(O)c(NC(=O)c2cc([N+](=O)[O-])ccc2Cl)c1 | inactive: 18.5%
CN1C(=O)CON=C1c1cccc2ccccc12 | inactive: 27.9%
Cc1cccc(Oc2nc(-c3ccncc3)nc3ccccc23)c1 | inactive: 35.9%
COc1ccc(-n2c(/C=C3/C(=O)Nc4ccccc43)nc3ccccc3c2=O)cc1 | inconclusive: -43.4%
COc1ccccc1NC(=O)c1oc2ccccc2c1NC(=O)C1CC1 | inconclusive: -53.9%
Cc1ccc(C)c(NC(=O)C2CCCN2S(=O)(=O)c2ccc3c(c2)CCCC(=O)N3)c1 (configuration not stated) | inactive: -2.5%
CCOC(=O)CCN(Cc1cccs1)S(=O)(=O)c1ccc(Cl)cc1 | inconclusive: -48.7%
Cc1ccc(N(CC(=O)NC2CCCC2)C(=O)c2nsc(Cl)c2Cl)cc1 | active: -74.9%
COc1ccc(N2C(=O)c3ccccc3NC2c2cccnc2)cc1 (configuration not stated) | inactive: 47.2%
COc1ccc(-c2sc3ccc(N4CCOCC4)cc3c2C#CCO)cc1 | active: -86.6%
CC(CCc1ccccc1)NC(=O)c1ccncc1 (configuration not stated) | inconclusive: -40.5%
O=C(OCC(=O)N1CCC(c2ccccc2)=N1)c1ccc(Cl)s1 | inactive: -16.5%

Compound | activity change, negative = inhibition
COc1cc2c(ccc3c4cc(OC)c(OC)cc4c[n+](C)c23)cc1O | active: -99.7%
Cc1ccc(OCc2cc(C(=O)N3CCCC(C)C3)no2)cn1 (configuration not stated) | inconclusive: -46.5%
COC(=O)[C@H](CCSC)NC(=O)Cn1cnc2c(SC)nc(N)nc21 | inactive: -4.66%
COc1cc(OC)cc(C(=O)OCCCOC(=O)c2cc(OC)cc(OC)c2)c1 | inactive: -31.1%
Clc1ccc(-c2noc(CSc3nnc(-c4ccncc4)n3-c3ccccc3)n2)cc1 | active: -101%
Cc1ccc(NC(=O)C2CCCN(S(=O)(=O)c3ccc(C)cc3)C2)cc1 (configuration not stated) | inconclusive: -42.3%
COCCn1c(SCc2ccc(C(=O)OC)o2)nnc1-c1c[nH]c2ccccc12 | inconclusive: -46.9%
CCOC(=O)C1=C(C)N(Cc2ccccc2)C(=O)NC1c1ccccc1OS(=O)(=O)c1ccccc1[N+](=O)[O-] (configuration not stated) | inconclusive: -52.6%
CCCCN(CCCC)S(=O)(=O)c1ccc(NC(=O)c2ccc([N+](=O)[O-])cc2Cl)cc1 | active: -78.5%
COc1ccccc1NC(=O)Cn1cnc2sc(C)c(S(=O)(=O)N3CCCCC3)c2c1=O | inconclusive: -41.2%
COc1ccc(N2CC(=O)N(c3ccccc3)C2=S)cc1 | inactive: 21.6%
CCCc1ccc(OC(=O)c2sc3ncn(Cc4cccc(F)c4)c(=O)c3c2C)cc1 | inactive: -9.25%
O=C(NNC(=S)NC(=O)c1ccco1)c1ccc(F)cc1 | inactive: 39.4%
COc1cc(OC)c(NC(=O)C(Sc2nc(C)cc(C)c2C#N)c2ccccc2)cc1Cl (configuration not stated) | inconclusive: -51%
COC(=O)c1ccc(NC(=O)C(c2ccccc2)N2Cc3ccccc3C2=O)cc1 (configuration not stated) | inactive: 23.3%
O=C(NC(c1ccccc1)c1ccccc1)C1CCCC1 | inconclusive: -44.3%
Cc1ccc(-c2onc(C)c2C)cc1S(=O)(=O)N1CCc2ccccc21 | inconclusive: -48.1%
O=C(CSc1nc(-c2ccco2)cc(C(F)(F)F)n1)Nc1cccnc1 | inconclusive: -52.1%
O=C1c2ccccc2C(Nc2ccc(S(=O)(=O)N3CCOCC3)cc2)N1Cc1ccco1 (configuration not stated) | inconclusive: -58.6%
O=C(OCCCc1cc2ccccc2c(=O)o1)c1ccc2c(c1)OCO2 | inactive: -12.1%
Cc1ccc(-c2n[nH]c(=O)c3ccccc23)c(C)c1 | inconclusive: -54.2%
CC(=O)c1c(O)c(C)c(-c2ccccc2)n(-c2ccccc2)c1=O | inactive: 27%

Compound | activity change, negative = inhibition
CC1CCC(C(C)C)C(OC(=O)COC(=O)c2ccc(=O)[nH]c2)C1 (configuration not stated) | inconclusive: -40.1%
CC1(C)CC(NC(=O)c2ccncc2)CC(C)(C)N1O | inactive: -20.4%
COC(=O)C1=C(c2ccc(F)cc2OCc2ccccc2)C[C@@H]2CC[C@H]1N2C(=O)N1CCOCC1 | inconclusive: -42.2%
CC(=O)OCCN1C(=O)c2ccc(-c3nc4ccccc4c(=O)o3)cc2C1=O | inconclusive: -45.3%
CCCN(CCC)C(=O)CSc1nc2ccccc2c(=O)n1C1CCCC1 | inconclusive: -51.7%
CCCOc1ccc(C(=O)Nc2cccc(NC(=O)c3ccc(Cl)cc3Cl)c2)cc1 | active: -91.1%
Cc1ccc(-c2nnc(NC3CCCCC3)c3ccccc23)cc1S(=O)(=O)N1CCN(C)CC1 | active: -73.5%
CCn1c(SCC(=O)Nc2ccccc2)nnc1-c1cccs1 | inconclusive: -47.5%
Cc1ccc(C(=O)N2CCN(c3ccccc3O)CC2)cc1S(=O)(=O)N1CCCCC1 | inactive: 2.63%
COc1ccccc1-c1nnc(SCC(=O)Nc2ccc(Cl)cc2Cl)o1 | inactive: 59.9%
Cc1nn(CCC(=O)Nc2cccc(C#N)c2)c(C)c1S(=O)(=O)N1CCC(C)CC1 | inconclusive: -42.9%
CCOC(=O)C1=CCN(S(=O)(=O)c2ccc(C)cc2)[C@H]1c1ccccc1Cl | inactive: -38.4%
Nc1ccccc1Cl | inconclusive: -40.4%
COc1cc(/C=C/[N+](=O)[O-])ccc1OC(=O)c1cc2ccccc2oc1=O | active: -72.3%
CC(C)n1ncc2c(C(=O)N3CCN(Cc4ccc(Br)s4)CC3)cc(C3CC3)nc21 | inactive: -24%
CCN(c1ccc(C)cc1C)S(=O)(=O)c1nnc(NC(=O)c2ccc(F)cc2)s1 | inconclusive: -53.8%
CCSC1=NCCN1C(=O)c1ccc(S(=O)(=O)N(C)C)cc1 | inconclusive: -48.8%
CCCCOc1ccccc1C(=O)NNC(=S)NC(=O)c1ccccc1[N+](=O)[O-] | inconclusive: -48.4%
O=C(O)Cn1c(SC2CCCCC2)nc2ccccc21 | inactive: 27.3%
CC(C)C(C)NC(=O)COc1ccc(OCc2ccccc2)cc1 (configuration not stated) | inconclusive: -54%
CCN(C(=O)CSc1nnc(-c2ccncc2)o1)c1ccccc1 | inconclusive: -48.6%
CC(Cc1cccc(C(F)(F)F)c1)NCCOC(=O)c1ccccc1 (configuration not stated) | inconclusive: -54.6%

Compound | activity change, negative = inhibition
CC(C)c1ccc(NC(=O)C2Cc3c(-c4ccc(Cl)cc4)ccnc3O2)cc1 (configuration not stated) | inconclusive: -56%
CS(=O)(=O)N(CC(=O)NCCC1=CCCCC1)c1ccc2c(c1)OCO2 | inconclusive: -57.6%
COC(=O)c1ccc(C23CC4(C2)[C@H](CN(CC2CCCCC2)[C@@H]4c2ccccc2)C3c2ccccc2)cc1 (some centres not stated) | inactive: 6.98%
O=C(Nc1ccc(N2CCCCC2)cc1)c1ccc2c(c1)OCCO2 | active: -91.1%
Cc1ccc(CNC(=O)C(=O)NCC(c2cccs2)S(=O)(=O)c2ccccc2)cc1 (configuration not stated) | inconclusive: 0%
NC(=O)CSc1nnc(-c2cc(-c3ccc(Cl)cc3)nc3ccccc23)o1 | inconclusive: -51.8%
Cc1cc(C(=O)COC(=O)c2n[nH]c(=O)c3ccccc23)c(C)n1C | inconclusive: 0%
C[C@H](CO)N1C[C@H](C)[C@@H](CN(C)S(=O)(=O)c2cccs2)Oc2ccc(NS(=O)(=O)c3cn(C)cn3)cc2C1=O | inconclusive: -44.2%
CCCC(=O)Nc1sc(-c2ccccc2)c(-c2ccccc2)c1C(=O)O | inactive: 9.62%
CCc1ccc(C(=O)NC(=S)Nc2ccc(N3CCOCC3)cc2)cc1 | active: -89.3%
Cc1cc(C)n(C(C[N+](=O)[O-])c2ccc(Cl)cc2)n1 (configuration not stated) | active: -105%
O=C(Nc1ccc(F)cc1)N1CCN(c2nc3ccccc3s2)CC1 | inconclusive: -53.7%
COc1cc2c(cc1OC)CN(C(=O)c1cccc(S(=O)(=O)N3CCc4ccccc43)c1)CC2 | inconclusive: -55.7%
Nc1c(N(CCC2=CCCCC2)C(=O)COc2ccc(F)cc2Cl)c(=O)[nH]c(=O)n1Cc1ccccc1 | active: -98%
Cc1ccc(-n2ncc3c(N4CCN(Cc5ccccc5)CC4)ncnc32)cc1C | inconclusive: -49.2%
COCCN1CCN(C(=O)C2CCC(=O)N(Cc3ccccc3OC)C2)CC1 (configuration not stated) | inactive: 62.9%
COc1cc(/C=N/NC(N)=O)cc([N+](=O)[O-])c1O | inactive: -7.74%
O=C(Cn1cnc([N+](=O)[O-])c1)Nc1cc(Oc2ccc(Cl)cc2Cl)cc([N+](=O)[O-])c1 | active: -73.2%
C=CCNC(=O)NC(=O)CSc1nnc(C(F)(F)F)n1C | inconclusive: -40.8%
O=C(Nc1cccc2ncccc12)c1ccc(OCc2ccccc2)cc1 | inconclusive: -57.1%
CCCN1Cc2cccc(C(=O)NC(CC(=O)OCC)c3ccc(OC(C)C)cc3)c2C1=O (configuration not stated) | inconclusive: -41.4%

A second format for 4 compounds above.
CCCC(=O)Nc1sc(-c2ccccc2)c(-c2ccccc2)c1C(=O)O
  activity change, negative = inhibition: inactive: 9.62%
CCc1ccc(C(=O)NC(=S)Nc2ccc(N3CCOCC3)cc2)cc1
  activity change, negative = inhibition: active: -89.3%
Cc1cc(C)n(C(C[N+](=O)[O-])c2ccc(Cl)cc2)n1 (configuration not stated)
  activity change, negative = inhibition: active: -105%
O=C(Nc1ccc(F)cc1)N1CCN(c2nc3ccccc3s2)CC1
  activity change, negative = inhibition: inconclusive: -53.7%
